Data on 38 targets can be found in the supplement of paper PMC7666118.

Sequences of proteins named here, by UniProt entry; tags and fusion partners are left off. A change or cut given only in a name is not applied to a line headed by its entry.
UniProt Q9Y2Y0: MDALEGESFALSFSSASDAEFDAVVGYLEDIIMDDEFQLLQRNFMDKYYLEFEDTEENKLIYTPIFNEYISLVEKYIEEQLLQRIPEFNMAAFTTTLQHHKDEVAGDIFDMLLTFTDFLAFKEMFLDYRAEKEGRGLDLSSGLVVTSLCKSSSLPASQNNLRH
UniProt Q68EM7: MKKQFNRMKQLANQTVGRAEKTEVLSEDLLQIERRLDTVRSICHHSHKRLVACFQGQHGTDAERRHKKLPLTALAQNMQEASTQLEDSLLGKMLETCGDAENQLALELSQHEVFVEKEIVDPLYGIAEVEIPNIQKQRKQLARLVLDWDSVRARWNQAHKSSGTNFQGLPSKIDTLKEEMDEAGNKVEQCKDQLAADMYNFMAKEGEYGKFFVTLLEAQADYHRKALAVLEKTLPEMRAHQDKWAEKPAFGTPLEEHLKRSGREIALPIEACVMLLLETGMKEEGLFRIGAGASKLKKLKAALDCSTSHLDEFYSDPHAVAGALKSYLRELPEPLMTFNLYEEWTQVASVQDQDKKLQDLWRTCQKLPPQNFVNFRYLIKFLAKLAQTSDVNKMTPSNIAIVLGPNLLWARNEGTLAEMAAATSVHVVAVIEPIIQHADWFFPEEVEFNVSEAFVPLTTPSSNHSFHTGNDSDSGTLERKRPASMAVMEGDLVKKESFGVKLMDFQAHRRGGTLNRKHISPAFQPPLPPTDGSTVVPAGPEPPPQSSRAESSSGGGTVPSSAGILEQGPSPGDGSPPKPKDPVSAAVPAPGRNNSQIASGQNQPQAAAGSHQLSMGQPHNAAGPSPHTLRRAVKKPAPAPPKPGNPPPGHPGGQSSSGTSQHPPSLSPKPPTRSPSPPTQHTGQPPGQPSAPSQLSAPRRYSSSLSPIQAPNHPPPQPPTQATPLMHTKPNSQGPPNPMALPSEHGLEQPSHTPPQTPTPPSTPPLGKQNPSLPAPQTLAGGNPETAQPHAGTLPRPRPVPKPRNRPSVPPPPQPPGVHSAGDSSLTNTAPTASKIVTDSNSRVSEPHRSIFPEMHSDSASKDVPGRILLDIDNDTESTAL
UniProt Q9UJX3, whole entry: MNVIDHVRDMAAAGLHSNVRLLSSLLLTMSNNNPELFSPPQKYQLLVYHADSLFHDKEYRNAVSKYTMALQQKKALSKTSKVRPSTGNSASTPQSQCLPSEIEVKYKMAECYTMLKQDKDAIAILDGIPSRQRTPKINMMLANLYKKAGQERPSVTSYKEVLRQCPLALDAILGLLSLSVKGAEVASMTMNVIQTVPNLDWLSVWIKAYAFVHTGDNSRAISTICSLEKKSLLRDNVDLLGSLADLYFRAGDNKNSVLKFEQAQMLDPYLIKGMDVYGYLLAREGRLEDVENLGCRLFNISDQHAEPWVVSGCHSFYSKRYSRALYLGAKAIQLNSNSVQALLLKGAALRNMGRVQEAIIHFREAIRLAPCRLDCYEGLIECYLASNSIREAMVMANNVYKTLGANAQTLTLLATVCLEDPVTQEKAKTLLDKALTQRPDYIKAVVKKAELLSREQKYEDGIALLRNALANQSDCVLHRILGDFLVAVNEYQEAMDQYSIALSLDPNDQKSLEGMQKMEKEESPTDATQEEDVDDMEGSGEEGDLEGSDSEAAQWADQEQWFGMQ
UniProt Q9P2R3: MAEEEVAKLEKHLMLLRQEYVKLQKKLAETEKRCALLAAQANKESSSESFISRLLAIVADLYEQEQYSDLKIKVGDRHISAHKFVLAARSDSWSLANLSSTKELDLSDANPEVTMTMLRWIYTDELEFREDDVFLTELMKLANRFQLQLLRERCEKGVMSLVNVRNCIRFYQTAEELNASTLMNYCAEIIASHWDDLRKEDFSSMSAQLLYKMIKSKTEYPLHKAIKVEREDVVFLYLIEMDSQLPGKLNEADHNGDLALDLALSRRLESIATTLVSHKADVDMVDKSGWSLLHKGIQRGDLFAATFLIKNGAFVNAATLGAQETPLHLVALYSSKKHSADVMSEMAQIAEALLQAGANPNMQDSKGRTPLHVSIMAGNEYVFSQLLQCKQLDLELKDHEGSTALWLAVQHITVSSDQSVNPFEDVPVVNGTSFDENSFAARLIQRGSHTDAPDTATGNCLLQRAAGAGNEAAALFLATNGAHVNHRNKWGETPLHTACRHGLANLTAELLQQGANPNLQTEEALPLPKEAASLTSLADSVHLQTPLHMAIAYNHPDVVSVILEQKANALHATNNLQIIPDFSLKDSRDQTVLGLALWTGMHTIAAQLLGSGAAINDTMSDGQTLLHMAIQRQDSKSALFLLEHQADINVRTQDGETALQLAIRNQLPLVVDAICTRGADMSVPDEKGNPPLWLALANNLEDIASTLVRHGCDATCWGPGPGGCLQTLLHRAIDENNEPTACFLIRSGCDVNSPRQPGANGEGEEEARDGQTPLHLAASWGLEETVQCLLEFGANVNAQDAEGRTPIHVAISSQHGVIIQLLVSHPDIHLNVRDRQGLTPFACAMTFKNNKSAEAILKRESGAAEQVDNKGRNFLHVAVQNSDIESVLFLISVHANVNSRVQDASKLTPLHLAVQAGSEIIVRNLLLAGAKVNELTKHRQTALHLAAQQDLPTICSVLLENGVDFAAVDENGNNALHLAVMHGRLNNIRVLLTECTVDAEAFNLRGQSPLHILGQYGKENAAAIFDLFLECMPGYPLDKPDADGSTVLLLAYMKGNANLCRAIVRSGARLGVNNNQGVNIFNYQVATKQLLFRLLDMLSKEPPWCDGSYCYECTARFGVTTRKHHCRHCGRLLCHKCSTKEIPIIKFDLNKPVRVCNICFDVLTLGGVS
UniProt P13716: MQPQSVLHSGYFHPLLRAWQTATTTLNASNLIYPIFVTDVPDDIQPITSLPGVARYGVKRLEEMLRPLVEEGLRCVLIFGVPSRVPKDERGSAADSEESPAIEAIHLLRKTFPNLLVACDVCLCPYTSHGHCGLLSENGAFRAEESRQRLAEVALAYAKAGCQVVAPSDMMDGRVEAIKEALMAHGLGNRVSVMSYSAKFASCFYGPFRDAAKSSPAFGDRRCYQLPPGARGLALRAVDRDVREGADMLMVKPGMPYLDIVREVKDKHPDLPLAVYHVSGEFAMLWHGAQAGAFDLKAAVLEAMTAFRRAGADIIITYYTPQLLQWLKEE
UniProt Q9UPW5: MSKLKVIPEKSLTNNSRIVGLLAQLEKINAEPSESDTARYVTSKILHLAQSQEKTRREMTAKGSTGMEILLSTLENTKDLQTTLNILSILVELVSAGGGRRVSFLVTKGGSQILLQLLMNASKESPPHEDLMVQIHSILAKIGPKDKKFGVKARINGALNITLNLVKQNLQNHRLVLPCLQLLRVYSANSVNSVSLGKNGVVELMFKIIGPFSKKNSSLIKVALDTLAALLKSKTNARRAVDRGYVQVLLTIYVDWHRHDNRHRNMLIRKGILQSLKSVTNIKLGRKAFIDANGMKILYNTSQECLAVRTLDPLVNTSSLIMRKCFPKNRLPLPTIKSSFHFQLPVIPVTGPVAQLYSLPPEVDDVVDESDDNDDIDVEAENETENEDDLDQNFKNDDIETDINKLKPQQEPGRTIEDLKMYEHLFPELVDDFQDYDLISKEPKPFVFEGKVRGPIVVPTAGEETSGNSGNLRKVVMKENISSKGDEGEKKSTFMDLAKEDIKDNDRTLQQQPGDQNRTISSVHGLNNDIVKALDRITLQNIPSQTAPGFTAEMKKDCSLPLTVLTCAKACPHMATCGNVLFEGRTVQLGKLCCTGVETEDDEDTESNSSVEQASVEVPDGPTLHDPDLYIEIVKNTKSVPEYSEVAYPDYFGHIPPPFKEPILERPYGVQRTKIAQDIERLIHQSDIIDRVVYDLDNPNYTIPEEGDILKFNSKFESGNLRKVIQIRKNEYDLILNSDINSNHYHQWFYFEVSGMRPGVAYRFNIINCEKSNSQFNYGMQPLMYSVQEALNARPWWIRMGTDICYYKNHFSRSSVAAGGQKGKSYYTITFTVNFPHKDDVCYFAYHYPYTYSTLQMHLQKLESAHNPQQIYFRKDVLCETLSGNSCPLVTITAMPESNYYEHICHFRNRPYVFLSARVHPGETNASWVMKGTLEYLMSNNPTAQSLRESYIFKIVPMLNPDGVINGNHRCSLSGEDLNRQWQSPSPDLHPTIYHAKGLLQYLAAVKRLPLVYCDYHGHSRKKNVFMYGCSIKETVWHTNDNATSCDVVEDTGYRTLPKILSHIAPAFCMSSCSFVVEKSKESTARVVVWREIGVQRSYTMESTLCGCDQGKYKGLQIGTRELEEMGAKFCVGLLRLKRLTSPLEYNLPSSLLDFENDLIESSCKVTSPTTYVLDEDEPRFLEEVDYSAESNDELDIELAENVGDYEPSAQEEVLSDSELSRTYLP
UniProt P20933: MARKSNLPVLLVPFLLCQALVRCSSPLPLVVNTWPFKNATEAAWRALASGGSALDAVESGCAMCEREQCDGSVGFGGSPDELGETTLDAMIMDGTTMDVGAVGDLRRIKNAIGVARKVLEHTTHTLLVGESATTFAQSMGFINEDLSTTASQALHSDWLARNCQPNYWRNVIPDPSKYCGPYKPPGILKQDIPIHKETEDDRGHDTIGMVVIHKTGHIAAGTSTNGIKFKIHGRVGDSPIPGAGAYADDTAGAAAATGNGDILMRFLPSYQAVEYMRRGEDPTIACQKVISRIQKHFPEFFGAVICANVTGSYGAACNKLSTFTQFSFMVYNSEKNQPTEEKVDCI
UniProt Q9NR19, whole entry: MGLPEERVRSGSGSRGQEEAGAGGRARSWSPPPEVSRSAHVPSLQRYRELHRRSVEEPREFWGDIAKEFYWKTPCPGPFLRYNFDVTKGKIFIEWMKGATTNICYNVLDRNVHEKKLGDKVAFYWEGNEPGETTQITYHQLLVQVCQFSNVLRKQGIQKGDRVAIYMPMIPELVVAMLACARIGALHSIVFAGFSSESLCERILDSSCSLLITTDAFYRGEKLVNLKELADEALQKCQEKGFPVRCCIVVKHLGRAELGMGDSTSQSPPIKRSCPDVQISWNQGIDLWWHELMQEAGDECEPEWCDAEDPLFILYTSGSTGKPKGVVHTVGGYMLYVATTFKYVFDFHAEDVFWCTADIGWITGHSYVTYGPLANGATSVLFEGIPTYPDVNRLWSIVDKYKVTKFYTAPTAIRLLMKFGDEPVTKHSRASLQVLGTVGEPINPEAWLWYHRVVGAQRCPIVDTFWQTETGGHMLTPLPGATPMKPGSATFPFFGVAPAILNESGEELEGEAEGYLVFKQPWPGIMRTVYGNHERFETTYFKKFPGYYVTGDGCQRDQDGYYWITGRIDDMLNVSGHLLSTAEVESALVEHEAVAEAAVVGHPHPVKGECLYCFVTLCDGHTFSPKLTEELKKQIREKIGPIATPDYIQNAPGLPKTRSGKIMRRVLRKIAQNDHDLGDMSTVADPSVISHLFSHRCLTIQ
UniProt Q5VTE6: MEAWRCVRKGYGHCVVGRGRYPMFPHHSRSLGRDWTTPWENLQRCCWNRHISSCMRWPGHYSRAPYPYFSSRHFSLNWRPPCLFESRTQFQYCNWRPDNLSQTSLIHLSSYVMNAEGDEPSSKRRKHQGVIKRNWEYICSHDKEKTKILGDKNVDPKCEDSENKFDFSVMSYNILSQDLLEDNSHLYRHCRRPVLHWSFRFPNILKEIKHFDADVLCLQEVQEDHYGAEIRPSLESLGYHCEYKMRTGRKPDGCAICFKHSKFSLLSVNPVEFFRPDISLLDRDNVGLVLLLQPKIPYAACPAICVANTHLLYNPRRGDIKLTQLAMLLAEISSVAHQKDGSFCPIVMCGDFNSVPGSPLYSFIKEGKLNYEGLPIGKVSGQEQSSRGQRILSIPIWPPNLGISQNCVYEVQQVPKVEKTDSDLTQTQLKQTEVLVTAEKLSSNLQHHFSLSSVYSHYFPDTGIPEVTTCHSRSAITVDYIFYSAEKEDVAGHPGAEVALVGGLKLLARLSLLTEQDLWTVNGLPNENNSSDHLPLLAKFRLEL
UniProt Q9BWD1: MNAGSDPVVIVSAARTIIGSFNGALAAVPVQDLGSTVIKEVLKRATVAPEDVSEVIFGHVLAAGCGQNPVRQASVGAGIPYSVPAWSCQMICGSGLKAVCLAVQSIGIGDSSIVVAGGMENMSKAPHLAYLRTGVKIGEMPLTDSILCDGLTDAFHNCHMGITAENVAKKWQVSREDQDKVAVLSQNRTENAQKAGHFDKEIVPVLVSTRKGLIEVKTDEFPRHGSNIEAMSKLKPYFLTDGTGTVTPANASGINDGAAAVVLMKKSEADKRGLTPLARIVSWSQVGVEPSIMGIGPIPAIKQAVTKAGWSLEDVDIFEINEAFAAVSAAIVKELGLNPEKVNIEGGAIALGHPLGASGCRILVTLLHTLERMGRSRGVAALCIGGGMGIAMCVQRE
UniProt P14621: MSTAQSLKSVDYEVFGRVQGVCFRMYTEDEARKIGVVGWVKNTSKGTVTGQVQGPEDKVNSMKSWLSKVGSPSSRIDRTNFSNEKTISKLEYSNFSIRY

This is one part of the list.

Compound in the assay: COc1ccc(Cn2ccc3ccc(C(=O)NO)cc32)cc1
The assay is described as follows: dose-dependent thermal stabilisation call (2D-TPP, DLPTP, 10% FDR) (binary (1 = stabilised)); higher = stabilised by the compound. As to conditions: system: HL-60 intact cells; concentration range 0.04-10 µM.
Take ACOX1 (UniProt Q15067): the “dose-dependent thermal stabilisation call” value was inactive: 0. For AOAH (UniProt P28039), the “dose-dependent thermal stabilisation call” value was inactive: 0.

Take ARL2BP (UniProt Q9Y2Y0): the “dose-dependent thermal stabilisation call” value is inactive: 0. With ACTL6A (UniProt O96019) the figure was inactive: 0.

For the target ANAPC2 (UniProt Q9UJX6), the “dose-dependent thermal stabilisation call” value is inactive: 0. With ARHGAP17 (UniProt Q68EM7) the figure was inactive: 0. In the case of ARHGAP5 (UniProt Q13017), the “dose-dependent thermal stabilisation call” value is inactive: 0. Turning to ARL2 (UniProt P36404), the “dose-dependent thermal stabilisation call” value is inactive: 0. With ACIN1 (UniProt Q9UKV3) the figure was inactive: 0; with AMFR (UniProt Q9UKV5), inactive: 0; with ANP32E (UniProt Q9BTT0), inactive: 0. With ALDH9A1 (UniProt P49189) the figure was inactive: 0. With ARID1A (UniProt O14497) the figure was inactive: 0; with ALDH1L1 (UniProt O75891), inactive: 0; with ALS2CR4 (UniProt Q96Q45), inactive: 0.

ANAPC7 (UniProt Q9UJX3): the “dose-dependent thermal stabilisation call” value was inactive: 0. With ARHGEF18 (UniProt Q6ZSZ5) the figure was inactive: 0; with ANKFY1 (UniProt Q9P2R3), inactive: 0. With ACBD3 (UniProt Q9H3P7) the figure was inactive: 0. Regarding AQR (UniProt O60306), the “dose-dependent thermal stabilisation call” value was inactive: 0. With ALAD (UniProt P13716) the figure was inactive: 0; with APC (UniProt P25054), inactive: 0. For ADA (UniProt P00813) the value was inactive: 0; for AGTPBP1 (UniProt Q9UPW5), inactive: 0; for ANKLE2 (UniProt Q86XL3), inactive: 0. For AGA (UniProt P20933) the value was inactive: 0. On to ACSL3 (UniProt O95573), for which the “dose-dependent thermal stabilisation call” value was inactive: 0.

For the target ACSS2 (UniProt Q9NR19), the “dose-dependent thermal stabilisation call” value is inactive: 0. For AHCTF1 (UniProt Q8WYP5) the value was inactive: 0. For ADAM10 (UniProt O14672) the value was inactive: 0; for AIG1 (UniProt Q9NVV5), inactive: 0.

In the case of APOB (UniProt P04114), the “dose-dependent thermal stabilisation call” value is inactive: 0. Take ANGEL2 (UniProt Q5VTE6): the “dose-dependent thermal stabilisation call” value is inactive: 0. With ACAT2 (UniProt Q9BWD1), the “dose-dependent thermal stabilisation call” value was inactive: 0. For ARAP1 (UniProt Q96P48) the value was inactive: 0; for ADAR (UniProt P55265), inactive: 0. For ACYP2 (UniProt P14621) the value was inactive: 0.

Turning to ADRM1 (UniProt Q16186), the “dose-dependent thermal stabilisation call” value was inactive: 0.
